Read-outs that look alike come from different tables or passages of the source. The match of structure and compound is tentative.
Key:
Mino BTK C481S cells = test: Cell viability assay, Mino BTK C481S; conditions: read-out: IC50, anti-proliferative activity, Mino BTK C481S; 48 h
PI3Kγ [1] = molecular target: T1, PI3Kγ (Homo sapiens, UniProt P48736); test: Adapta kinase activity assay, PI3Kγ; conditions: read-out: IC50, PI3Kγ
JeKo-1 BTK C481S cells = test: Cell viability assay, JeKo-1 BTK C481S; conditions: 48 h
[2] = test system: HS-5 bone marrow-derived stromal cell line; test: MTS cytotoxicity assay, HS-5 stromal cells; conditions: 72 h
BTK WT = BTK WT (Homo sapiens, UniProt Q06187); test: Kinase activity assay, BTK WT; type: biochemical; conditions: read-out: IC50, BTK WT
[3] = test system: healthy donor peripheral blood mononuclear cells (PBMCs); test: MTS cytotoxicity assay, healthy donor PBMCs; conditions: 48 h
Mino cells [4] = test: Cell cycle analysis, Mino; conditions: 1 µM, 24 h, increased from 12
[5] = molecular target: T2, BTK C481S (Ibrutinib-resistant mutant) (Homo sapiens, UniProt Q06187, C481S); test: Kinase activity assay, BTK C481S; type: biochemical
JeKo-1 cells [6] = test: Cell cycle analysis, JeKo-1; conditions: JeKo-1, 1 µM, 24 h
Granta cells = test: Cell viability assay (alamarBlue / CellTiter-Glo), Granta
[7] = test system: BTK and AKT phosphorylation; test: Inhibitor washout assay, Mino cells
[8] = molecular target: T2, BTK C481S (Ibrutinib-resistant mutant); conditions: cited from earlier work
PI3Kγ [9] = molecular target: T1, PI3Kγ; conditions: read-out: IC50, PI3Kγ; cited from earlier work
PI3Kδ = PI3Kδ (Homo sapiens, UniProt O00329); test: Adapta kinase activity assay, PI3Kδ; conditions: read-out: IC50, PI3Kδ
[10] = test system: BTK/PI3K signaling (pBTK Y223, pAKT S473); test: Western blot of BTK/PI3K signaling in IgM-stimulated MCL cells; conditions: 1 h
JeKo-1 cells [11] = test: Cell viability assay (alamarBlue / CellTiter-Glo), JeKo-1; type: cell-based, human; conditions: read-out: IC50, anti-proliferative activity, JeKo-1; 48 h
Mino cells [12] = test: Cell viability assay (alamarBlue / CellTiter-Glo), Mino; conditions: read-out: IC50, anti-proliferative activity, Mino; 48 h
[13] = test system: cMYC and HEXIM1 expression; test: qRT-PCR of cMYC and HEXIM1, JeKo-1 cells; conditions: 0.5 μM, 24 hr
PI3Kα = PI3Kα (Homo sapiens, UniProt P42336); test: Adapta kinase activity assay, PI3Kα; conditions: read-out: IC50, PI3Kα
[14] = read-out: IC50, drug-resistant C481S mutant of BTK
[15] = Mino cells, 1 h treatment, washes with PBS

Chains of the proteins cited; added tags and fusions are not shown. Lines headed by an entry give the natural chain unless they say otherwise; changes in a name come on top.
UniProt P48736, whole entry: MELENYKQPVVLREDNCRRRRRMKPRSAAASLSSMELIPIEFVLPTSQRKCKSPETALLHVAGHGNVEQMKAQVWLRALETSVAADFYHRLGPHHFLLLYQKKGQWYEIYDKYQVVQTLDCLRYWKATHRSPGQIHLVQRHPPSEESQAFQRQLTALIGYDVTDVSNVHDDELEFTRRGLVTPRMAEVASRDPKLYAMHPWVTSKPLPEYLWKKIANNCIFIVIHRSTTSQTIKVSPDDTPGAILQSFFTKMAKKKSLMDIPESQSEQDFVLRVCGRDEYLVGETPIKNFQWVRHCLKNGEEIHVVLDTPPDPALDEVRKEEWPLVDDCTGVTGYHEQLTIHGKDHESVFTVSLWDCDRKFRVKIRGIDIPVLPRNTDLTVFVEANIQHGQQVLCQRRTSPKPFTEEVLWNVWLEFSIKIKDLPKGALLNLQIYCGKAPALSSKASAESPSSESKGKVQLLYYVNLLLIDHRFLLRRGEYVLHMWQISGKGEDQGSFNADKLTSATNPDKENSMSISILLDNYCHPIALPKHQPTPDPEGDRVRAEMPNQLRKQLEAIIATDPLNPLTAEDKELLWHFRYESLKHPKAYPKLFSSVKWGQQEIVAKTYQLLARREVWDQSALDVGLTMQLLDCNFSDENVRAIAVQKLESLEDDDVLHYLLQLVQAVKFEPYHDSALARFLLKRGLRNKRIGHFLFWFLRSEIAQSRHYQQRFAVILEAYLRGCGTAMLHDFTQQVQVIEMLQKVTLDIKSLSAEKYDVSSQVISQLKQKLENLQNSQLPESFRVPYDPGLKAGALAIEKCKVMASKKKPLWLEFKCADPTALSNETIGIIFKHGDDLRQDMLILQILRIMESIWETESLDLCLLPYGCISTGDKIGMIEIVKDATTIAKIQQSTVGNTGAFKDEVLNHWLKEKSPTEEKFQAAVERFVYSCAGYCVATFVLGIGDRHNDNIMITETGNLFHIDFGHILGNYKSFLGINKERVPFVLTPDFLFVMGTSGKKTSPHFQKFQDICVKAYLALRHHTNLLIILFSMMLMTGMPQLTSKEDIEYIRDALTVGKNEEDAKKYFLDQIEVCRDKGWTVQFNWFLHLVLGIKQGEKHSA
UniProt Q06187, whole entry C481S: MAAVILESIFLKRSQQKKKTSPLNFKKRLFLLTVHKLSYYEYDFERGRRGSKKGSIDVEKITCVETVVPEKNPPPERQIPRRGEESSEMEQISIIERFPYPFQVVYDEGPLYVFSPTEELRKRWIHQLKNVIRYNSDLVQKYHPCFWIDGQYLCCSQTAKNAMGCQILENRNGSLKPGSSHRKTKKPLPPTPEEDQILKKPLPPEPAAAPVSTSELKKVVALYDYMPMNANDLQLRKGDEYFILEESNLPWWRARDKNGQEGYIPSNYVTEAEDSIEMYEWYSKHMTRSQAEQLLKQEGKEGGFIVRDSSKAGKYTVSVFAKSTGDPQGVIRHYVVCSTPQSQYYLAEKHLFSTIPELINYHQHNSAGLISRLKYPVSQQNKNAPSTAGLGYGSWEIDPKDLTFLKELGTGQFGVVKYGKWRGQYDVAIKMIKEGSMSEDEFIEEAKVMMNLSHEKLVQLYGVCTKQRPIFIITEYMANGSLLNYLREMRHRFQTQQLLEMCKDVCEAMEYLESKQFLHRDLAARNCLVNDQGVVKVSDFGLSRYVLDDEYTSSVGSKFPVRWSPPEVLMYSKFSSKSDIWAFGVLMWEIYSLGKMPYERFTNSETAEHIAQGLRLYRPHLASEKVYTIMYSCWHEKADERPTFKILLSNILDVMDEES
UniProt Q06187, whole entry: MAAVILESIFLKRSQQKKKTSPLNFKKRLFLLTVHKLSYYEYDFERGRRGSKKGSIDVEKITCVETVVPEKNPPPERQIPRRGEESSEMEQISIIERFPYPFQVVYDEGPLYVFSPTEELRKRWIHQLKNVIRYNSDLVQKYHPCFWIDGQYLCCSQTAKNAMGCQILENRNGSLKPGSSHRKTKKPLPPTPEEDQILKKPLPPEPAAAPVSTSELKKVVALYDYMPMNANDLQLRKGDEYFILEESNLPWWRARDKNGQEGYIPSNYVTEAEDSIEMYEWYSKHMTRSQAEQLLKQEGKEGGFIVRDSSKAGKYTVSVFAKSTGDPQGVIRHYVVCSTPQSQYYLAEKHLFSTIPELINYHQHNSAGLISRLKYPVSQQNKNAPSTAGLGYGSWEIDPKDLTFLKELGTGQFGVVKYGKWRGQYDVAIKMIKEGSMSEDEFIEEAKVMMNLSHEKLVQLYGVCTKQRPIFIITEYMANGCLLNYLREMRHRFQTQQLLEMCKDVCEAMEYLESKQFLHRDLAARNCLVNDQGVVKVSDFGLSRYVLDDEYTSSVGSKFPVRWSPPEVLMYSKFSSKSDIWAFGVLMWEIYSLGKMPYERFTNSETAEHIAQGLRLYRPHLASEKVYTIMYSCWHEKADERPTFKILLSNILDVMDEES
UniProt O00329, whole entry: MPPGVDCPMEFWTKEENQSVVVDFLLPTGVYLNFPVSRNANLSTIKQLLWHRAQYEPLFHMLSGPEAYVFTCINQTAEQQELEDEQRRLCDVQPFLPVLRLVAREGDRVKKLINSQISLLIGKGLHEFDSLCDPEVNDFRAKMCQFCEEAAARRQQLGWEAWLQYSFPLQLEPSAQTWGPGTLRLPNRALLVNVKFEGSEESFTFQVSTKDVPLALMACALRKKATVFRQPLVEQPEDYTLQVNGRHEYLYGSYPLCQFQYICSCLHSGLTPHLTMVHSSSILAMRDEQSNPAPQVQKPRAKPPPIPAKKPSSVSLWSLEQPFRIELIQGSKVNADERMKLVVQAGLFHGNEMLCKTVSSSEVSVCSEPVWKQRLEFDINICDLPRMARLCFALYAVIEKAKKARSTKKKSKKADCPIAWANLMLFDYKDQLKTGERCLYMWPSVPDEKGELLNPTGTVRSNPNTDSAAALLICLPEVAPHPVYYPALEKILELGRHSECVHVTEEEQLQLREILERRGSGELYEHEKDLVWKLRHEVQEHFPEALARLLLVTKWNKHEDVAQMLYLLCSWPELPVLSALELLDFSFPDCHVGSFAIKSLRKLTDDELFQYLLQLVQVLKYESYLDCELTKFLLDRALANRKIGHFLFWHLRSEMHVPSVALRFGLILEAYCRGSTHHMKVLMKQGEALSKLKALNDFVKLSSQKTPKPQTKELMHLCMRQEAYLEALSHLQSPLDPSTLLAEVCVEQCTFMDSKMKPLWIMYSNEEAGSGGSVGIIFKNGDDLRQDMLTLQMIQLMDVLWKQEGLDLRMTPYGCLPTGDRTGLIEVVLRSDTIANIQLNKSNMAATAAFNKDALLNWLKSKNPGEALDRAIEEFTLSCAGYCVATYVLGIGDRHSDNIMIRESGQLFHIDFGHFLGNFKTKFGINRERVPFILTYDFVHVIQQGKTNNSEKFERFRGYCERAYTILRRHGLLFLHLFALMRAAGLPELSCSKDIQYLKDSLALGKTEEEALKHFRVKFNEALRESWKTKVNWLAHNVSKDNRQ
UniProt P42336, whole entry: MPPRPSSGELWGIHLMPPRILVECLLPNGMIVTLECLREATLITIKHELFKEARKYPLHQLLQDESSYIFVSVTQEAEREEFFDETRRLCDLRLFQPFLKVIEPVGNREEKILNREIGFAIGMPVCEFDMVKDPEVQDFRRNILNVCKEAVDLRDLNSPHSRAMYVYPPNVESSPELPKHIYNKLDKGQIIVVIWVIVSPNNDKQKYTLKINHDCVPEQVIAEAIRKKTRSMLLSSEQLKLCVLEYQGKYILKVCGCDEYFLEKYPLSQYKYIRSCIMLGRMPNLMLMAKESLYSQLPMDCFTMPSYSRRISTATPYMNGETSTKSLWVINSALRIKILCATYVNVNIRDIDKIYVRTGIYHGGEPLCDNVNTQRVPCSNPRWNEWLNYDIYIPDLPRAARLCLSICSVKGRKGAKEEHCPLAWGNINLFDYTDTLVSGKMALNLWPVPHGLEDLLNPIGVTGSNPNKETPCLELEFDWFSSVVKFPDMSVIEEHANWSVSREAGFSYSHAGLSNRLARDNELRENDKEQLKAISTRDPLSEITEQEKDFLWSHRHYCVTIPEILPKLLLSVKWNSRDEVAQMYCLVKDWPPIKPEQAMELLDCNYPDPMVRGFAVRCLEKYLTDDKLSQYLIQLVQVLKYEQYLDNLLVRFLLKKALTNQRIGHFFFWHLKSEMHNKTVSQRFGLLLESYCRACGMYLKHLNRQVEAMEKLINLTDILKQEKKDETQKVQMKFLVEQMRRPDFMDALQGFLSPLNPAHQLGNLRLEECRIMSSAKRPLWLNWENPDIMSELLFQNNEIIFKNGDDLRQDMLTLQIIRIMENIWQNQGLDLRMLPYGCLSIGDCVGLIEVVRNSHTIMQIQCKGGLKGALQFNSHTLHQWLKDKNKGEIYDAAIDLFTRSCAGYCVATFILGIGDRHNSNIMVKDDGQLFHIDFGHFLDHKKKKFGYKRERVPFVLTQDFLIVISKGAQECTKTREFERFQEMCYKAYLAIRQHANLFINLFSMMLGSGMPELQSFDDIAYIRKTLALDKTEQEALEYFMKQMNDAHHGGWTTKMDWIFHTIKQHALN
UniProt P27986, whole entry partner: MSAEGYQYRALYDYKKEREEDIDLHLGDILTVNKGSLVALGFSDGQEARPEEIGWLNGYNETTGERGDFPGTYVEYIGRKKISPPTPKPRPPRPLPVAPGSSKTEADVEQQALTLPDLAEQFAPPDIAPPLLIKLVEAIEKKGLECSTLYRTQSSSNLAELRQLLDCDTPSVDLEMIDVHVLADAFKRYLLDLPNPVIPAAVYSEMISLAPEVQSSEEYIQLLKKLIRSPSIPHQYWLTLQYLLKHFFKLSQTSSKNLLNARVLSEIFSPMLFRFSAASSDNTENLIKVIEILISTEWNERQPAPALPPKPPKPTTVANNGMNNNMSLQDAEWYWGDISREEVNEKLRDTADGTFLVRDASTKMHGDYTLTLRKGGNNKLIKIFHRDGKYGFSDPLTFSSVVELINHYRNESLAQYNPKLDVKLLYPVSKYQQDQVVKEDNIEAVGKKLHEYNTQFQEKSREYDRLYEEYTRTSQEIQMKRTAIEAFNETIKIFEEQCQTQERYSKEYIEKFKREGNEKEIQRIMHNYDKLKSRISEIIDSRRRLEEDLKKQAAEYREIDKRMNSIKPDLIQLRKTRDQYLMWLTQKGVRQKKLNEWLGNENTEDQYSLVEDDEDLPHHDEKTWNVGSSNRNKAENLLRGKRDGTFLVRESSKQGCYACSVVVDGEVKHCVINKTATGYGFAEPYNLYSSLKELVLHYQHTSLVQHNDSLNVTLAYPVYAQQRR

**Q.** Which results are given for `C=CC(=O)N1CCOc2ccc(-c3csc4c(=O)cc(N5CCOCC5)oc34)cc21`?
**A.** IC50 (Mino BTK C481S cells): 47 nM; IC50 (PI3Kγ [1]): 163 nM; IC50 (JeKo-1 BTK C481S cells; read-out: IC50, JeKo-1 BTK C481S): 1000 nM; IC50 (JeKo-1 BTK C481S cells; read-out: IC50, anti-proliferative activity, JeKo-1 BTK C481S): 1020 nM; toxicity to bystander healthy stromal cells (HS-5) [2]: minimally toxic; IC50 (BTK WT): 6.5 nM; toxicity to healthy donor PBMCs [3]: minimally toxic; cell population in G2 phase (Mino cells [4]): 19%; IC50 ([5]; read-out: IC50, BTK C481S): 9140 nM; IC50 [5, 14]: 9000 nM; cell population in G2 phase (JeKo-1 cells [6]; increasing from 8): 18%; cell population in S phase (JeKo-1 cells [6]; increasing from 49): 65%; anti-proliferative activity in Granta, an Ibrutinib-resistant cell line (Granta cells; Fig. 3e, f): dose dependent anti-proliferative activity; IC50 (Granta cells; read-out: IC50, Granta cells, 48 h): 1100 nM; mode of inhibition [7]: irreversible inhibitor; AKT phosphorylation after inhibitor wash out [7, 15]: retained inhibition of AKT phosphorylation; BTK phosphorylation after inhibitor wash out [7, 15]: retained inhibition of BTK phosphorylation; IC50 ([8]; read-out: IC50, BTK C481S): 25100 nM; IC50 [8, 14]: 25000 nM; IC50 (PI3Kγ [9]): 486 nM; IC50 (PI3Kδ): 4 nM; inactivation of BTK/PI3K signaling versus Ibrutinib 1 μM and SRX3262 5 μM ([10]; 0.5 μM, Mino cells): to the same extent; activation of BTK (Tyr223) and AKT (Ser473) ([10]; IgM stimulated JeKo-1 and Mino cells): blocked activation of both BTK and AKT; IC50 (JeKo-1 cells [11]): 58 nM; IC50 (Mino cells [12]): 1 nM; expression of HEXIM1 [13]: increase; expression of cMYC [13]: decrease; IC50 (PI3Kα): 15 nM
